Source: PubChem BioAssay AID1224830 (NIAID, 2016)
The deposit covers about 18,000 reagents; shown is a part drawn at random. Of all reagents, about 2,900 (16%) got an active call. 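Calls are made per well; low scores hint the gene aids the LPS response, high scores that it dampens it.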 Repeated entries: four replicate wells of each siRNA pool.

Screen: 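Regulators of TLR4 signalling towards TNF-alpha in macrophage-like cells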 (primary screen)
System: human THP-1 monocytic leukaemia cells, TNF dual-luciferase reporter clone, PMA-differentiated to macrophage-like cells
Reagent: siRNA pool against human genes, 50 nM
Timing: LPS for 4 h, given about 3 days after siRNA transfection
Challenge: bacterial LPS (TLR4 ligand), 10 ng/ml
Measurement: 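TNF firefly reporter luminescence divided by renilla, normalised to the plate median, then turned into a robust z-score for each replicate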
Scale: TNF reporter robust z-score: higher = stronger TNF reporter response to LPS
Hit rule: 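Each well counts as active if its z-score is over 2.8 or under -1.5; controls are left without a call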

CFL2 (cofilin 2) — TNF reporter robust z-score: -1.38; Call: inactive
CFL2 (cofilin 2) — TNF reporter robust z-score: -0.69; Call: inactive
CFL2 (cofilin 2) — TNF reporter robust z-score: -1.19; Call: inactive
CFL2 (cofilin 2) — TNF reporter robust z-score: -0.96; Call: inactive
LYRM1 (LYR motif containing 1) — TNF reporter robust z-score: -0.64; Call: inactive
LYRM1 (LYR motif containing 1) — TNF reporter robust z-score: 0.45; Call: inactive
LYRM1 (LYR motif containing 1) — TNF reporter robust z-score: -0.05; Call: inactive
LYRM1 (LYR motif containing 1) — TNF reporter robust z-score: -0.04; Call: inactive

Quoted from the entries so far for reference:
LYRM1 (LYR motif containing 1) — TNF reporter robust z-score: -0.64; Call: inactive
LYRM1 (LYR motif containing 1) — TNF reporter robust z-score: 0.45; Call: inactive

The list goes on:
SPAG16 (sperm associated antigen 16) — TNF reporter robust z-score: 0.41; Call: inactive
SPAG16 (sperm associated antigen 16) — TNF reporter robust z-score: -0.74; Call: inactive
SPAG16 (sperm associated antigen 16) — TNF reporter robust z-score: -1.05; Call: inactive
SPAG16 (sperm associated antigen 16) — TNF reporter robust z-score: -1.29; Call: inactive
IFI6 (interferon alpha inducible protein 6) — TNF reporter robust z-score: 1.05; Call: inactive
IFI6 (interferon alpha inducible protein 6) — TNF reporter robust z-score: 2.42; Call: inactive
IFI6 (interferon alpha inducible protein 6) — TNF reporter robust z-score: 0.92; Call: inactive
IFI6 (interferon alpha inducible protein 6) — TNF reporter robust z-score: 1.12; Call: inactive
OR5M8 (olfactory receptor family 5 subfamily M member 8) — TNF reporter robust z-score: -0.39; Call: inactive
OR5M8 (olfactory receptor family 5 subfamily M member 8) — TNF reporter robust z-score: 0.32; Call: inactive
OR5M8 (olfactory receptor family 5 subfamily M member 8) — TNF reporter robust z-score: -0.04; Call: inactive
OR5M8 (olfactory receptor family 5 subfamily M member 8) — TNF reporter robust z-score: 0.96; Call: inactive
